Laboratory results as given in paper PMC7895832.
Read-outs that look alike come from different tables or passages of the source. These are yes or no findings as the source states them, for the method shown. In cells and extracts the contact can be indirect. Some results given as binding are weak or reduced against the parent protein; the word gives no strength.

The chains behind the UniProt entries cited, without tags or fusion partners.
UniProt Q8CFI0: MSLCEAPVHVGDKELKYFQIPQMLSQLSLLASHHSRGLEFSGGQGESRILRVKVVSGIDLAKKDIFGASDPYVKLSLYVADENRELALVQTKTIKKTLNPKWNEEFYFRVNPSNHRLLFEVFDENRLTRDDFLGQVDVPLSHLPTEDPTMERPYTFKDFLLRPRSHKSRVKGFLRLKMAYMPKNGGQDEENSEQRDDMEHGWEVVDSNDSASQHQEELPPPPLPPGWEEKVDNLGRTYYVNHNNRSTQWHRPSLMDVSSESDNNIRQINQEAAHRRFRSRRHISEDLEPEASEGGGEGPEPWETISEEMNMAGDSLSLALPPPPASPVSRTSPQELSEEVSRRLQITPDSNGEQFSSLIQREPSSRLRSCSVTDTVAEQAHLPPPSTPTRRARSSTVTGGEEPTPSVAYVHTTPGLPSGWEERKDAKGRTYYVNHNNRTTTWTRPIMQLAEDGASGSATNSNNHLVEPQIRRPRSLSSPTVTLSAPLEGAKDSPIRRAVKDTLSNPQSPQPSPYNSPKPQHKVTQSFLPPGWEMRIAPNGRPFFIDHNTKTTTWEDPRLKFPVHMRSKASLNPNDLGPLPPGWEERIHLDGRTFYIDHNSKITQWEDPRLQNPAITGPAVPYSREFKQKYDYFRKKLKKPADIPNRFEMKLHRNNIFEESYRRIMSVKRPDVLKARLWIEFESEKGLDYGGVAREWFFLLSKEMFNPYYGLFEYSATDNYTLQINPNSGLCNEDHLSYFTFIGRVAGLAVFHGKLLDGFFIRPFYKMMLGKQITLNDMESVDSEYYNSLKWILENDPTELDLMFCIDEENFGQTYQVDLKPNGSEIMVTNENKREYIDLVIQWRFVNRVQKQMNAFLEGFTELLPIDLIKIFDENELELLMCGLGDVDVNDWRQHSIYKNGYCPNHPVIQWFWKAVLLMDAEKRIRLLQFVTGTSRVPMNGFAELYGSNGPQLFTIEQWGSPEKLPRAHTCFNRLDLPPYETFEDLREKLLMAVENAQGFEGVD

T1: endogenous TRAF3 (mouse peritoneal macrophages) (mouse (endogenous in peritoneal macrophages)) (UniProt Q60803)
T1 sequence: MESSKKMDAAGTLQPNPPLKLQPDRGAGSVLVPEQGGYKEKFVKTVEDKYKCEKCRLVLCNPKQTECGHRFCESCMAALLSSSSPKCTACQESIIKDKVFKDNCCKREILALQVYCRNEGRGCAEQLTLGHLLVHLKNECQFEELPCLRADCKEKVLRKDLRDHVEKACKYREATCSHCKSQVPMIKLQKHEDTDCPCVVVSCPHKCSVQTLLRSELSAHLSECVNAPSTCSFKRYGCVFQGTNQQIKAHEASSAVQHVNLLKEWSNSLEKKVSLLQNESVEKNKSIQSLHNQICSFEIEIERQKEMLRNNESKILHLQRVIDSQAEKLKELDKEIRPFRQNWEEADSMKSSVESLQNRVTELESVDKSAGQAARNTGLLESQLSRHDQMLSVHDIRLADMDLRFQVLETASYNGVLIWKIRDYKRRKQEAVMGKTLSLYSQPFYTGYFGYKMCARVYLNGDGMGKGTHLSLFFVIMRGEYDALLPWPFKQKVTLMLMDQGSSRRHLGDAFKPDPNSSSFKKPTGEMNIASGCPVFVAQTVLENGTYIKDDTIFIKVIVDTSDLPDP


Tests used:
[1] = target: T1, endogenous TRAF3 (mouse peritoneal macrophages) (mouse (endogenous in peritoneal macrophages)); experiment: co-IP
[2] = target: T1, endogenous TRAF3 (mouse peritoneal macrophages) (mouse (endogenous in peritoneal macrophages)); experiment: co-IP; remark: listed apart in the source

Row | Molecule | binding [1] | binding [2]
1 | endogenous Nedd4l (mouse peritoneal macrophages) (from UniProt Q8CFI0 1-1004) (enzyme) | binds | 
2 | endogenous HECTD3 (mouse peritoneal macrophages) (enzyme, UniProt Q3U487 1-861) MAGPGPGAALESPRQLLGRVRFLAEAARSLRAGLPLPAALAFVPREVLYKLYKDPAGPSRVLLPVWEAEGLGLRVGAVGAAPGTGSGPLRAARDSIELRRGACVRTTGEELCNGHGLWVKLTKEQLAEHLSDCSLDEGWLLVCRPAEGGARLVPIDTPDHLQRQQQLFGVDYRPVLRWEQVVDLTYSHRLGSRPQPAEAYTEAIQRLLYVPPTWTYECDEDLIHFLYDHLGKEDENLGSVKQYVESIDVSSYTEEFNVSCLTDSNADTYWESDGSQCQHWVRLTMKKGTIVKKLLLTVDTTDDNFMPKRVVVYGGEGDNLKKLSDVNIDETLIGDVCVLEDMTVHLPIIEIRIVECRDDGIDVRLRGVKIKSSRQRELGLNADLFQPASLVRYPRLEGTDPEVLYRRAVLLQRFIKILDSVLHHLVPAWDHTLGTFSEIKQVKQFLLLSRQRPSLVAQCLRDSESSKPSFMPRLYINRRLAMEHRACPSRDPACKNAVFTQVYEGLKPSDKYEKPLDYRWPMRYDQWWECKFIAEGIIDQGGGFRDSLADMSEELCPSSADTPVPLPFFVRTANQGNGTGEARDMYVPNPSCRDFAKYEWIGQLMGAALRGKEFLVLALPGFVWKQLSGEEVSWSKDFPAVDSVLVKLLEVMEGVDKETFEFKFGKELTFTTVLSDQQVVELIPGGTGIVVEYEDRSRFIQLVRKARLEESKEQVAAMQAGLLKVVPQAVLDLLTWQELEKKVCGDPEVTVDALRKLTRFEDFEPSDTRVQYFWEALNNFTNEDRSRFLRFVTGRSRLPARIYIYPDKLGYETTDALPESSTCSSTLFLPHYASAKVCEEKLRYAAYNCVAIDTDMSPWEE |  | binds
